Assay results as given in paper PMC5699845.
Results are given in words; binding and its absence hold for the method and conditions named. Binding seen in cells or lysates may run through a third protein. Some results given as binding are weak or reduced against the parent protein; the word gives no strength. For part of these data: Tags and fused reporters may be left off the sequences shown. One block for each binder: values may come before it.

How the values were obtained:
[1] = biological target: T1, Flag-tagged TRAF6-d1 (lacking amino acids 1–259) (human) (UniProt Q9Y4K3); test: co-IP; 293T cells transfected 24 h with Flag-tagged TRAFs or their truncations and HA-tagged TBK1, HA-tagged IKKε or HA-tagged MAVS; IP anti-Flag, Western blot
T1 sequence: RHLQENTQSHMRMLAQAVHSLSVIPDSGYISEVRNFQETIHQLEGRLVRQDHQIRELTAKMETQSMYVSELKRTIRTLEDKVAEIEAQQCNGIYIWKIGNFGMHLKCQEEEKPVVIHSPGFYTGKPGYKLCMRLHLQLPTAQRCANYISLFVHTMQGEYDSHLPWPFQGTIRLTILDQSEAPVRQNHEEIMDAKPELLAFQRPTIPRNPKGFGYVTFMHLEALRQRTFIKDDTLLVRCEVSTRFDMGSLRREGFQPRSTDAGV

[2] = biological target: T2, Flag-tagged TRAF2 (human) (UniProt Q12933); test: as above
T2 sequence: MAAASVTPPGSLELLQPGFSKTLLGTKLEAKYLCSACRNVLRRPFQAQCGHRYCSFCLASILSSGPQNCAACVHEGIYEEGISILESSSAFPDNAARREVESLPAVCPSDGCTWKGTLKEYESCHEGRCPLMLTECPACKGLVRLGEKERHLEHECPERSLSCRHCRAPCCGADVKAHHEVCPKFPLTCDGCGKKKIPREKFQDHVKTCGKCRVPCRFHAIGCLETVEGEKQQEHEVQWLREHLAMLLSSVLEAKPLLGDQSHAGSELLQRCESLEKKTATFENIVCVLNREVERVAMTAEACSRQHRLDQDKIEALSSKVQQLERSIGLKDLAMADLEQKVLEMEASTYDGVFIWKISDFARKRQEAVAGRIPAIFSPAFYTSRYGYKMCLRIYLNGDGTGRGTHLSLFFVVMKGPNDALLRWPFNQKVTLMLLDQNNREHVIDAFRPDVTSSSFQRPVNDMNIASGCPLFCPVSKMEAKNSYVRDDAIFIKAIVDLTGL

[3] = biological target: T3, Flag-tagged TRAF2-dR (lacking amino acids 34–73) (human) (UniProt Q12933); test: as above
T3 sequence: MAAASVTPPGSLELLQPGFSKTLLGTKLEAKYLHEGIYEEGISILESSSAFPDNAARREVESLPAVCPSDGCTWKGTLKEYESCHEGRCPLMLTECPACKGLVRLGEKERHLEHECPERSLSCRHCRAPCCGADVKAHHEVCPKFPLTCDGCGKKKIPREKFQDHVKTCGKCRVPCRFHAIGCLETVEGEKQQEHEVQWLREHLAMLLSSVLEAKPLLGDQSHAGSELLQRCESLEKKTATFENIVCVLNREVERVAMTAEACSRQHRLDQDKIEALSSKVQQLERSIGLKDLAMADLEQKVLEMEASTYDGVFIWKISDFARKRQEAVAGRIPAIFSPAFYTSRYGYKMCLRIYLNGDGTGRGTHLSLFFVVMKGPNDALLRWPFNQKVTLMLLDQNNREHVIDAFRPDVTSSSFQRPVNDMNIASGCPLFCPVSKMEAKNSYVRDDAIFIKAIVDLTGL

[4] = biological target: T4, Flag-tagged TRAF2-d1 (lacking amino acids 1–233) (human) (UniProt Q12933); test: as above
T4 sequence: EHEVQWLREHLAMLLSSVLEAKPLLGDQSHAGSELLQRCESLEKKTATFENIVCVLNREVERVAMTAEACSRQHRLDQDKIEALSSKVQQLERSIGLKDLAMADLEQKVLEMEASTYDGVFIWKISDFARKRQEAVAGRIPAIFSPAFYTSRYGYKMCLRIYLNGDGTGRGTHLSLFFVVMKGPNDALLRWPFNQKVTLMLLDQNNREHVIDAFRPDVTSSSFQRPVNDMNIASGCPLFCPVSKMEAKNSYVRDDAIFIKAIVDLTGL

[5] = biological target: T5, Flag-tagged TRAF3-dR (lacking amino acids 68–77) (human) (UniProt Q13114); test: as above
T5 sequence: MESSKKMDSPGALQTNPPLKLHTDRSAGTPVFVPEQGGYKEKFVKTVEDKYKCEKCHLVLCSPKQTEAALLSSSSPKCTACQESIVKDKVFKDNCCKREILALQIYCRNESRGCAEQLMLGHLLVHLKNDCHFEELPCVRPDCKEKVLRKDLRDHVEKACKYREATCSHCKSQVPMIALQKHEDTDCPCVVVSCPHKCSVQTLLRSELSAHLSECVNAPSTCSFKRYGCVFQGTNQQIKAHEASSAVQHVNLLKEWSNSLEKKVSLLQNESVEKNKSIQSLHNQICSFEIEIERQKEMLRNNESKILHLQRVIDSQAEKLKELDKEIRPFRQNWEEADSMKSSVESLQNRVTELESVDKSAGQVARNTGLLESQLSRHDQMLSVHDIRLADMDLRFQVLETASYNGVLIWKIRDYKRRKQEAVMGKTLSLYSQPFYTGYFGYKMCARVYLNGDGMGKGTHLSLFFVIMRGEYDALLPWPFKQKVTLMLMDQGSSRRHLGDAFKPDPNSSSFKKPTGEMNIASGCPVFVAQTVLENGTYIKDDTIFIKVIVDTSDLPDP

[6] = biological target: T6, Flag-tagged TRAF3-d1 (lacking amino acids 1–249) (human) (UniProt Q13114); test: as above
T6 sequence: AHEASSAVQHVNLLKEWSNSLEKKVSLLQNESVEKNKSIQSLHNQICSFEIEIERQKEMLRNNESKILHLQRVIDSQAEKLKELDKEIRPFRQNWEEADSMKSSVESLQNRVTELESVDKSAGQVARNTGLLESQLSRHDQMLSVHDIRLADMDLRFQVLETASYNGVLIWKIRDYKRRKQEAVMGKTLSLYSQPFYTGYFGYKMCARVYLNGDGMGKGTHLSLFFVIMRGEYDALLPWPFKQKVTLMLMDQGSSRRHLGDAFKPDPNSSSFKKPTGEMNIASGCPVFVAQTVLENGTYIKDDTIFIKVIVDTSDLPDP

[7] = biological target: T7, Flag-tagged TRAF6-dR (lacking amino acids 70–109) (human) (UniProt Q9Y4K3); test: as above
T7 sequence: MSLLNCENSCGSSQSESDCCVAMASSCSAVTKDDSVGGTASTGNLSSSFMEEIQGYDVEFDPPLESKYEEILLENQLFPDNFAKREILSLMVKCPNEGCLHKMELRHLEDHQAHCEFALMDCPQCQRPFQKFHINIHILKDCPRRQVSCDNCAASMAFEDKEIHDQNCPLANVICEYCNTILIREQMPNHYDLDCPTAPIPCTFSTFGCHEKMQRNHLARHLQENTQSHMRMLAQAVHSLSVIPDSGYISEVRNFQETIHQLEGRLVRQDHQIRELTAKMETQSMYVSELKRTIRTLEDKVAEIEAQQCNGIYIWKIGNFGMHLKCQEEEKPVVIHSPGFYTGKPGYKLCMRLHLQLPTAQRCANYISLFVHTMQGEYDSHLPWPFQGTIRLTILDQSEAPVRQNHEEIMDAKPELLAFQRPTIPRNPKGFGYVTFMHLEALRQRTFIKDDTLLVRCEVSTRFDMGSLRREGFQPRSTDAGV

[8] = biological target: T8, TRAF2, endogenous (human (endogenous in 293T, HeLa, THP1)) (UniProt Q12933); test: co-IP; endogenous proteins; lysates of non-stimulated 293T, HeLa and THP1 cells immunoprecipitated with anti-TRAF2, 3 or 6 antibodies, Western blot
T8 sequence: T2 sequence

binding [1]: binds
binding [2]: binds
binding [3]: binds
binding [4]: binds
binding [5]: binds
binding [6]: binds
binding [7]: binds
B1: HA-tagged TBK1 (protein, UniProt Q9UHD2 1-729)
chain: MQSTSNHLWLLSDILGQGATANVFRGRHKKTGDLFAIKVFNNISFLRPVDVQMREFEVLKKLNHKNIVKLFAIEEETTTRHKVLIMEFCPCGSLYTVLEEPSNAYGLPESEFLIVLRDVVGGMNHLRENGIVHRDIKPGNIMRVIGEDGQSVYKLTDFGAARELEDDEQFVSLYGTEEYLHPDMYERAVLRKDHQKKYGATVDLWSIGVTFYHAATGSLPFRPFEGPRRNKEVMYKIITGKPSGAISGVQKAENGPIDWSGDMPVSCSLSRGLQVLLTPVLANILEADQEKCWGFDQFFAETSDILHRMVIHVFSLQQMTAHKIYIHSYNTATIFHELVYKQTKIISSNQELIYEGRRLVLEPGRLAQHFPKTTEENPIFVVSREPLNTIGLIYEKISLPKVHPRYDLDGDASMAKAITGVVCYACRIASTLLLYQELMRKGIRWLIELIKDDYNETVHKKTEVVITLDFCIRNIEKTVKVYEKLMKINLEAAELGEISDIHTKLLRLSSSQGTIETSLQDIDSRLSPGGSLADAWAHQEGTHPKDRNVEKLQVLLNCMTEIYYQFKKDKAERRLAYNEEQIHKFDKQKLYYHATKAMTHFTDECVKKYEAFLNKSEEWIRKMLHLRKQLLSLTNQCFDIEEEVSKYQEYTNELQETLPQKMFTASSGIKHTMTPIYPSSNTLVEMTLGMKKLKEEMEGVVKELAENNHILERFGSLTMDGGLRNVDCL

binding [8]: binds
B2: IKKε, endogenous (protein, UniProt Q14164 1-716)
chain: MQSTANYLWHTDDLLGQGATASVYKARNKKSGELVAVKVFNTTSYLRPREVQVREFEVLRKLNHQNIVKLFAVEETGGSRQKVLVMEYCSSGSLLSVLESPENAFGLPEDEFLVVLRCVVAGMNHLRENGIVHRDIKPGNIMRLVGEEGQSIYKLTDFGAARELDDDEKFVSVYGTEEYLHPDMYERAVLRKPQQKAFGVTVDLWSIGVTLYHAATGSLPFIPFGGPRRNKEIMYRITTEKPAGAIAGAQRRENGPLEWSYTLPITCQLSLGLQSQLVPILANILEVEQAKCWGFDQFFAETSDILQRVVVHVFSLSQAVLHHIYIHAHNTIAIFQEAVHKQTSVAPRHQEYLFEGHLCVLEPSVSAQHIAHTTASSPLTLFSTAIPKGLAFRDPALDVPKFVPKVDLQADYNTAKGVLGAGYQALRLARALLDGQELMFRGLHWVMEVLQATCRRTLEVARTSLLYLSSSLGTERFSSVAGTPEIQELKAAAELRSRLRTLAEVLSRCSQNITETQESLSSLNRELVKSRDQVHEDRSIQQIQCCLDKMNFIYKQFKKSRMRPGLGYNEEQIHKLDKVNFSHLAKRLLQVFQEECVQKYQASLVTHGKRMRVVHETRNHLRLVGCSVAACNTEAQGVQESLSKLLEELSHQLLQDRAKGAQASPPPIAPYPSPTRKDLLLHMQELCEGMKLLASDLLDNNRIIERLNRVPAPPDV

binding [1]: binds
binding [2]: binds
binding [3]: binds
binding [4]: binds
binding [5]: binds
binding [6]: binds
binding [7]: binds
B3: HA-tagged IKKε (protein, UniProt Q14164 1-716)
chain: B2 chain
